This note sets out measurements from US9981043B2, “Analgesic conjugates” (priority 2013, dated 2018).

“And” between values parts separate entries of the source, which are not always exact repeats. Identical values can stand only once. Where only a bound is given, the exact number is not on record here.

Type in all cases: in vivo
The subject of one data set is control mice. In words: Radiant tail flick antinociception, control (not pretreated) mice. To be noted: for i.c.v./i.t. ratio: controls. On the procedure: (§1) Compounds were dissolved in 10% DMSO and then diluted to less than 1% DMSO in the test solutions. […] Compounds were administered in a 5-μl volume in conscious mice, either i.c.v. (Haley T J & McCormick W G, Br J Pharmacol Chemother, 1957, 12(1), 12-15) or i.t. (Hylden J L K & Wilcox G L, Eur. J. Pharmacol., 1980, 67(2-3), 313-316). Peak times were determined by comparing the percent maximal possible effect (% MPE) at 5, 10, 20 and 60 minutes after injection.
(§2) The tail flick assay is used first to test for antinociception as described by D'Amour and Smith (D'AMOUR FE & SMITH DL (1941) J. Pharmacol. Exp. Ther. 72(1):74-79) and modified by Dewey et al. (Dewey W L, Harris L S, Howes J F, & Nuite JA (1970) J. Pharmacol. Exp. Ther. 175(2):435-442). For the measurement of the tail-flick latency, mice are wrapped in a light cloth and held gently in one hand with the tail positioned in the apparatus (Tail Flick Analgesia Meter, Columbus Instruments, Columbus, Ohio) for radiant heat stimulus. The tail-flick response is elicited by applying radiant heat to the dorsal side of the tail. The intensity of the heat is set so that the mouse flicks its tail within 2 to 3 seconds. The test latency is measured before drug treatment (control) and again after the drug treatment (test) at the peak time of the compound; a 10 second maximum cut-off time is used to prevent damage to the tail. Antinociception is quantified according to the Harris L S & Pierson A K, J. Pharmacol. Exp. Ther., 1964, 143(2):141-148, as the percent maximal possible effect (% MPE), which is calculated as: % MPE=(Test−Control/10−Control)×100.
(§3) At least three groups of four to ten mice are used for each dose response curve. ED50 values with 95% confidence intervals (C.I.) are computed with GraphPad Prism 4 by using nonlinear regression methods.

For data set [1], the system named is C3H mice with bone cancer. In words: von Frey mechanical hyperalgesia, bone cancer (fibrosarcoma) mice. To be noted: i.t. How it is done: The mouse hind paw model of bone cancer was the third model of pain (Wacnik P W, et al., Pain Research & Management, 2000, 16, 615-637; and Wacnik P W, et al., J Neurosci, 2001, 21(23), 9355-9366). Cell Culture: National Collection of Type Cultures (NCTC) clone 2472 fibrosarcoma cells, originally derived from a connective tissue tumor in a C3H mouse, were obtained from the American Type Cell Culture Collection (Rockville, Md.). Cells were grown and maintained in accordance with standard cell culturing techniques. […]
Cells were prepared for implantation by first pouring off the culture medium and washing with phosphate-buffered saline (PBS). […] Fibrosarcoma cells were re-suspended in a known amount of PBS for counting, quantified on a hemacytometer, pelleted and re-suspended in PBS. […]
C3H mice were was placed under a clean glass cup on a wire mesh grid and allowed to acclimate for thirty minutes. […] Starting with the right hind paw, the number of positive responses out of a total of 10 applications was recorded followed by the left hind paw. […] Subsequent measurements were taken at various time points after intrathecal (i.t.) injection of test compounds on days 3, 7, 10, 14, 17, and 21. % MPE was calculated ((Time-point value−Day# baseline)/(Day 0 baseline−day# baseline))*100 (Smeester B A, Al-Gizawiy M, & Beitz A J (2012) Evidence-Based Complementary and Alternative Medicine 2012:16). […]

In a further data set the test system is LPS pretreated mice. In words: Radiant tail flick antinociception, LPS pretreated mice. To be noted: for Relative potency: mouse, in vivo. On the procedure: as §1
The first group mice were pretreated with lipopolysaccaride (LPS, 1 mg/kg, i.p. from Escherichia coli 0111:B4; Sigma-Aldrich, St. Louis, Mo.) for 24 hours before testing for antinociception of compounds 2-6 (Seo Y-J, et al., Pharmacol., Biochem. Behav., 2008, 91, 121-127). This group was compared to a group without pretreatment.
as §2, §3

Turning to `COc1cccc(C#Cc2cccc(C)n2)c1` [Compound 2, 2-((3-methoxyphenyl)ethynyl)-6-methylpyridine, reference compound], the i.c.v./i.t. ratio in the data set on control mice came out at 1.
On to `Cc1cccc(C#Cc2cccc(OCCNC(=O)COCC(=O)N[C@H]3CC[C@@]4(O)C5Cc6ccc(O)c7c6[C@@]4(CCN5C)[C@H]3O7)c2)n1` [Compound 3, N-((4aS,7S,7aR,12bS)-4a,9-dihydroxy-3-methyl-2,3,4,4a,5,6,7,7a-octahydro-1H-4,12-methanobenzofuro[3,2-e]isoquinolin-7-yl)-2-(2-((2-(3-((6-methylpyridin-2-yl)ethynyl)phenoxy)ethyl)amino)-2-oxoethoxy)acetamide], for which the “more potent than the mixture (5+6)” value in data set [1] (PID 21) is reported as “about 62,000”. The Relative potency with LPS pretreated mice was 41. The i.c.v./i.t. ratio in the data set on control mice was found to be 4.62.
On to `Cc1cccc(C#Cc2cccc(OCCNC(=O)COCC(=O)NCCNC(=O)COCC(=O)N[C@H]3CC[C@@]4(O)C5Cc6ccc(O)c7c6[C@@]4(CCN5C)[C@H]3O7)c2)n1` [Compound 4a, N-((4aS,7S,7aR,12bS)-4a,9-dihydroxy-3-methyl-2,3,4,4a,5,6,7,7a-octahydro-1H-4,12-methanobenzofuro[3,2-e]isoquinolin-7-yl)-2-((14-(3-((6-methylpyridin-2-yl)ethynyl)phenoxy)-2,7,11-trioxo-9-oxa-3,6,12-triazatetradecyl)oxy)acetamide], for which the results for the i.c.v./i.t. ratio in the data set on LPS pretreated mice (LPS pretreated) and in the data set with control mice were 3.93 and 3.48, respectively. Also, the Relative potency in the data set with LPS pretreated mice turned out to be 16.
Regarding `Cc1cccc(C#Cc2cccc(OCCNC(=O)COCC(=O)NCCCNC(=O)COCC(=O)N[C@H]3CC[C@@]4(O)C5Cc6ccc(O)c7c6[C@@]4(CCN5C)[C@H]3O7)c2)n1` [Compound 4b, N-((4aS,7S,7aR,12bS)-4a,9-dihydroxy-3-methyl-2,3,4,4a,5,6,7,7a-octahydro-1H-4,12-methanobenzofuro[3,2-e]isoquinolin-7-yl)-2-((1-(3-((6-methylpyridin-2-yl)ethynyl)phenoxy)-4,8,14-trioxo-6-oxa-3,9,13-triazapentadecan-15-yl)oxy)acetamide], the i.c.v./i.t. ratio with LPS pretreated mice (LPS pretreated) was 6.38; with control mice it was 3.14. Further, in the data set on LPS pretreated mice, the Relative potency was found to be 33.
As to `Cc1cccc(C#Cc2cccc(OCCNC(=O)COCC(=O)NCCCCCNC(=O)COCC(=O)N[C@H]3CC[C@@]4(O)C5Cc6ccc(O)c7c6[C@@]4(CCN5C)[C@H]3O7)c2)n1` [Compound 4c, N-((4aS,7S,7aR,12bS)-4a,9-dihydroxy-3-methyl-2,3,4,4a,5,6,7,7a-octahydro-1H-4,12-methanobenzofuro[3,2-e]isoquinolin-7-yl)-2-((1-(3-((6-methylpyridin-2-yl)ethynyl)phenoxy)-4,8,16-trioxo-6-oxa-3,9,15-triazaheptadecan-17-yl)oxy)acetamide], the “more potent than a mixture of monovalent ligands” value in data set [1] (all time points evaluated) was “about 250,000 fold”. Moreover, the i.c.v./i.t. ratio in the data set with LPS pretreated mice (LPS pretreated) is > 40,000 and 42,457.
With `Cc1cccc(C#Cc2cccc(OCCNC(=O)COCC(=O)NCCCCCCCNC(=O)COCC(=O)N[C@H]3CC[C@@]4(O)C5Cc6ccc(O)c7c6[C@@]4(CCN5C)[C@H]3O7)c2)n1` [Compound 4d, N-((4aS,7S,7aR,12bS)-4a,9-dihydroxy-3-methyl-2,3,4,4a,5,6,7,7a-octahydro-1H-4,12-methanobenzofuro[3,2-e]isoquinolin-7-yl)-2-((1-(3-((6-methylpyridin-2-yl)ethynyl)phenoxy)-4,8,18-trioxo-6-oxa-3,9,17-triazanonadecan-19-yl)oxy)acetamide], in the data set with LPS pretreated mice (LPS pretreated), the i.c.v./i.t. ratio is on record as 1,648. The “lower potency than compound 4c” value in the data set with LPS pretreated mice (LPS pretreated, i.t.) is reported as 25 fold. Further, the Relative potency in the data set on LPS pretreated mice stood at 83. Further, the “less potent (i.c.v.)” value in the data set on control mice (control mice, i.c.v.) is 10 fold.
Take `CNC(=O)COCC(=O)NCCCNC(=O)COCC(=O)NCCOc1cccc(C#Cc2cccc(C)n2)c1` [Compound 6, N-methyl-2-(1-(3-((6-methylpyridin-2-yl)ethynyl)phenoxy)-4,8,14-trioxo-6-oxa-3,9,13-triazapentadecan-15-yloxy)acetamide]: in the data set on control mice (control mice, i.t.), the “less potent than compounds 4a-4c” value is “about 70 fold”.
